The test concerns the target T1, CBRC-cGKIα (proteinkinase G isoform Iα fused at its N-terminus to the C-terminal fragment of click beetle red luciferase) (UniProt P00516).
T1 sequence: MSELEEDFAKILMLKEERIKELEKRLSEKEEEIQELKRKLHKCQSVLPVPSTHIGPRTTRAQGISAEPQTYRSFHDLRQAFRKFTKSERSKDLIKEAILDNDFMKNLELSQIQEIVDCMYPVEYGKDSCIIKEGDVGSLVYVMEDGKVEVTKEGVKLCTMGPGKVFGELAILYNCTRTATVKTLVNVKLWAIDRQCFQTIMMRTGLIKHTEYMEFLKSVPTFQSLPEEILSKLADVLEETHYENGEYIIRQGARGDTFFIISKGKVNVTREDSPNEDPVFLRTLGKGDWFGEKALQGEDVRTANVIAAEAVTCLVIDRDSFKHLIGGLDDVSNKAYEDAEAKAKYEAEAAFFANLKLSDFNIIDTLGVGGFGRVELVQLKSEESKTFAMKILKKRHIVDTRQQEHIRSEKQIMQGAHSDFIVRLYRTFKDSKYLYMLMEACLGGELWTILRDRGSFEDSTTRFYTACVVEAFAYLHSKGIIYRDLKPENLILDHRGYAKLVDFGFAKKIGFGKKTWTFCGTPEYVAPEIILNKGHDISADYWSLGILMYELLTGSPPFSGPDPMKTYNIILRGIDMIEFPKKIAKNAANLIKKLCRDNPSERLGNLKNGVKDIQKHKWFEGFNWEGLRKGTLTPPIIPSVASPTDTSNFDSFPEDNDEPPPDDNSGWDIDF
Description: split reporter; click beetle red luciferase complementation (CBRN/CBRC) in co-transfected COS-7 cells, 15 µg DNA, vector ratios 1:25 to 1:100 (mostly 1:50); cells untreated or stimulated for 24 h with 8-Br-cGMP (0.5-2.5 mM), 8-pCPT-cGMP (100-500 µM) or 8-Br-cAMP (0.125-1 mM); Bright-Glo reagent, plate reader, RLU.

This is an account of results in PMC5979328, “Establishing a Split Luciferase Assay for Proteinkinase G (PKG) Interaction Studies” (International Journal of Molecular Sciences, 2018).

These are yes or no findings as the source states them, for the method shown. In cells and extracts the contact can be indirect. Some binding calls cover weakened binding; strength is not graded here. Tags and fused reporters may be left off the sequences shown.

B1: CBRN-RGS2 (regulator of G-protein signaling 2 fused at its N-terminus to the N-terminal fragment of click beetle red luciferase) (natural protein, UniProt P41220 1-211, looked up)
chain: MQSAMFLAVQHDCRPMDKSAGSGHKSEEKREKMKRTLLKDWKTRLSYFLQNSSTPGKPKTGKKSKQQAFIKPSPEEAQLWSEAFDELLASKYGLAAFRAFLKSEFCEENIEFWLACEDFKKTKSPQKLSSKARKIYTDFIEKEAPKEINIDFQTKTLIAQNIQEATSGCFTTAQKRVYSLMENNSYPRFLESEFYQDLCKKPQITTEPHAT
notes: regulator of G-protein signaling 2 (RGS2); cDNA from pCMV6_RGS2 (OriGene); source: COS-7 cells, calcium phosphate transfection, in living cells; not shown: CBRN (click beetle red luciferase aa 1-416; joined by a 17-residue Gly/Ser linker), N-terminal, kept
For B1, the binding result is recorded as “binds”.
